Experimental data: PubChem BioAssay AID1259299 (Sanger Institute, 2017)

Test: 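Kinases and colorectal mutated genes needed by colorectal cancer cells, with or without drugs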 (primary screen)
Cell system: human CAR1 colorectal cancer cells
Knock-down reagent: siRNA pool against human genes
Conditions: anchor drug BYL719 1 µM, cetuximab 5 µg/ml or trametinib 10 nM, or DMSO vehicle alone; exposure length not given
Detection: 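Cell viability as fraction of non-targeting siRNA wells, mean of replicates, with robust z-score and a synergy score for each of three drugs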
Direction: viability robust z-score, knock-down alone and viability, knock-down alone (DMSO): higher = more viable cells
Rule for the call: 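a gene is called essential if its knock-down-alone viability z-score drops under -3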
Meaning of the calls: active = essential (knock-down alone); inactive = no change
Here is a random part of 794 reagents. 9 of all reagents (1.1%) were called active. 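Calls rest on knock-down alone; synergy scores play no part in calls, and no gene passed the synergy cut.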 Viability is capped at 1. Further read-outs or replicates are left out here. The record does not give: the amount of reagent, the time to read-out.

no.	gene knocked down	viability robust z-score, knock-down alone	viability, knock-down alone (DMSO) (fraction of control)	outcome
1	TAOK1 (TAO kinase 1)	0.762	0.997	inactive
2	PSTK (phosphoseryl-tRNA kinase)	0.71	0.993	inactive
3	SIK3 (SIK family kinase 3)	0.789	1	inactive
4	MAP2K4 (mitogen-activated protein kinase kinase 4)	0.36	0.96	inactive
5	CAMK1G (calcium/calmodulin dependent protein kinase IG)	-1.87	0.755	inactive
6	JAK1 (Janus kinase 1)	0.789	1	inactive
7	PRKAG2 (protein kinase AMP-activated non-catalytic subunit gamma 2)	0.495	0.973	inactive
8	PRKD1 (protein kinase D1)	0.16	0.942	inactive
9	GATA3 (GATA binding protein 3)	-0.237	0.905	inactive
10	DGKH (diacylglycerol kinase eta)	0.732	0.995	inactive
11	PIK3C2G	0.0925	0.936	inactive
12	AMHR2 (anti-Mullerian hormone receptor type 2)	-2.02	0.741	inactive
13	DGKQ (diacylglycerol kinase theta)	0.789	1	inactive
14	CSNK1G1 (casein kinase 1 gamma 1)	0.408	0.965	inactive
15	CHKA (choline kinase alpha)	-0.78	0.855	inactive
16	MAP3K7 (mitogen-activated protein kinase kinase kinase 7)	0.146	0.941	inactive
17	SYNCRIP (synaptotagmin binding cytoplasmic RNA interacting protein)	-2.38	0.708	inactive

Taken from above:
TAOK1 (TAO kinase 1), outcome = inactive
For “viability, knock-down alone (DMSO) (fraction of control)”, PSTK (phosphoseryl-tRNA kinase) reads 0.993
Entry of AMHR2 (anti-Mullerian hormone receptor type 2) in “viability, knock-down alone (DMSO) (fraction of control)”: 0.741
For “viability, knock-down alone (DMSO) (fraction of control)”, DGKQ (diacylglycerol kinase theta) has 1
Entry of CAMK1G (calcium/calmodulin dependent protein kinase IG) under “viability robust z-score, knock-down alone”: -1.87

The list goes on.
no.	gene knocked down	viability robust z-score, knock-down alone	viability, knock-down alone (DMSO) (fraction of control)	outcome
18	EPHB3 (EPH receptor B3)	0.77	0.998	inactive
19	NR2F2 (nuclear receptor subfamily 2 group F member 2)	-0.351	0.895	inactive
20	DDR2 (discoidin domain receptor tyrosine kinase 2)	0.789	1	inactive
21	PIK3CB	-0.731	0.86	inactive
22	FGFR4 (fibroblast growth factor receptor 4)	0.789	1	inactive
23	SLK (STE20 like kinase)	0.717	0.993	inactive
24	EPHA4 (EPH receptor A4)	0.789	1	inactive
25	WNK3 (WNK lysine deficient protein kinase 3)	0.0503	0.932	inactive
26	MECOM (MDS1 and EVI1 complex locus)	0.789	1	inactive
27	NEK4 (NIMA related kinase 4)	0.081	0.935	inactive
28	NUP98 (nucleoporin 98 and 96 precursor)	-2.64	0.683	inactive
29	STK32A (serine/threonine kinase 32A)	-0.461	0.885	inactive
30	MAPKAPK5 (MAPK activated protein kinase 5)	-1.16	0.82	inactive
31	CDC42BPB (CDC42 binding protein kinase beta)	0.789	1	inactive
32	EPHA5 (EPH receptor A5)	0.324	0.957	inactive
33	STK40 (serine/threonine kinase 40)	0.319	0.957	inactive
34	CAMKK1 (calcium/calmodulin dependent protein kinase kinase 1)	0.789	1	inactive
